The subject of this assay is MX-1 breast xenograft, nude mice, tumor weight T/C. Kind of assay: NCI In Vivo Anticancer Drug Screen. Data for tumor model Human Mammary Carcinoma MX-1 Xenograft (intrarenal inoculation) in NU/NU Swiss (nude) mice. Particulars: T/C endpoint: mean tumor weight change, higher T/C = larger tumour; for T/C: evaluated on day 11. Here is the method:
The antitumor activity of compounds was measured in mice bearing transplantable tumors. Survival or tumor size were measured and the results are expressed as the measurement made in the treated group (T) divided by the measurement made in the vehicle treated control group (C). The tumor model used in this assay is Human Mammary Carcinoma MX-1 Xenograft (intrarenal inoculation) in NU/NU Swiss (nude) mice
(In xenograft studies the graft and the host belong to different species.)

Where [1] appears, read: dose: 200.0 mg/kg/injection, schedule: Q01DX010 (sc), vehicle: saline with Tween-80.

The list does not hold the whole screen: it is rich in T/C values a quarter to a half above the control, in often repeated tests (any T/C) and in doses without a T/C. Other doses and runs of a compound stand elsewhere. T/C is the treated group as % of the vehicle group. Schedule codes are those of the source, taken here to give the interval after Q, in days (D) or hours (H), and the number of doses after X. Some molecules as drawn cover several salts, stereoisomers or complexes of the source; a dose is that of the sample tested. Some T/C values carry the count of animals alive at the toxicity check (mostly the fifth day); where none is given, no animal had died by that day. Some entries give survivors of the animals treated and no T/C: the source holds a T/C of zero for them, seemingly a mark for toxic or unscored doses. Survivors were counted at the toxicity check, usually on the fifth day, unless a day is given; later deaths do not show. Some doses were run more than once; the results are listed from low to high.

Regarding `CCC1(O)CC2CN(CCc3c([nH]c4ccccc34)C(C(=O)OC)(c3cc4c(cc3OC)N(C)C3C(O)(C(=O)NCCSSCCNC(=O)C5(O)C(O)C6(CC)C=CCN7CCC8(c9cc(C%10(C(=O)OC)CC%11CN(CCc%12c%10[nH]c%10ccccc%12%10)CC(O)(CC)C%11)c(OC)cc9N(C)C58)C76)C(O)C5(CC)C=CCN6CCC43C65)C2)C1` (configuration not stated), the survivor count (dose: 12.0 mg/kg/injection, schedule: Q04DX003 (sc), vehicle: saline) is 0 of 6 on day 11.
With `N/C(=N\OC(=O)Nc1ccc(CSc2ccc(Cl)cc2)o1)c1ccccn1`, the survivor count is, setting by setting: (dose: 75.0 mg/kg/injection, schedule: Q04DX003 (sc), vehicle: saline) 0 of 6 on day 11; (dose: 600.0 mg/kg/injection, schedule: Q04DX003 (sc), vehicle: Klucel (hydroxypropylcellulose) (HPC)) 0 of 6 on day 11; (dose: 1200.0 mg/kg/injection, schedule: Q04DX003 (sc), vehicle: Klucel (hydroxypropylcellulose) (HPC)) 0 of 5 on day 11.
Consider `COC(=O)Nc1nc2ccc(C3(c4ccc(F)cc4)OCCO3)cc2[nH]1`, for which the T/C (dose: 25.0 mg/kg/injection, schedule: Q04DX003 (sc), vehicle: saline with Tween-80) was 129 % of control and the T/C (dose: 200.0 mg/kg/injection, schedule: Q04DX003 (sc), vehicle: saline with Tween-80) was 127 % of control.
For the compound `Oc1ccc(SCc2ccc(NCc3ccccc3)cc2)cc1`, the T/C under setting [1] was 144 % of control.
For `OCCN1CCN(CC/C=C2/c3ccccc3Sc3ccc(C(F)(F)F)cc32)CC1`, the survivor count by setting is: (dose: 480.0 mg/kg/injection, schedule: Q04DX003 (sc), vehicle: saline) 0 of 6 on day 11; (dose: 960.0 mg/kg/injection, schedule: Q04DX003 (sc), vehicle: saline) 0 of 6 on day 11.
For the compound `Cc1nc(C(Cl)(Cl)Cl)[nH]c(=O)c1SCCO`, the survivor count (dose: 1200.0 mg/kg/injection, schedule: Q04DX003 (ip), vehicle: distilled water + alcohol) is on record as 3 of 6 on day 11.
Consider `Cc1cc(O)c(N=Nc2ccc(C(=O)O)cc2)cc1C`, for which the T/C (dose: 1200.0 mg/kg/injection, schedule: Q04DX003 (sc), vehicle: saline with Tween-80) was 140 % of control.
For the compound `CC[As](=O)(O)CC`, the T/C (dose: 50.0 mg/kg/injection, schedule: Q04DX003 (sc), vehicle: saline) is 129 % of control. Besides, the survivor count (dose: 400.0 mg/kg/injection, schedule: Q04DX003 (sc), vehicle: saline) is on record as 1 of 6 on day 11.
Take `C[n+]1c2cc(N)ccc2cc2ccc(N)cc21`: under “dose: 12.5 mg/kg/injection, schedule: Q01DX010 (sc), vehicle: saline”, the survivor count is recorded as 0 of 3 on day 11.
For the compound `CN(C)[C@@H]1C(=O)C(C(=O)NCN2CCN(C(=N)N=C(N)N)CC2)=C(O)[C@@]2(O)C(=O)C3=C(O)c4c(O)cccc4[C@@](C)(O)[C@H]3C[C@@H]12`, the survivor count is recorded as 2 of 6 on day 11 (dose: 10.0 mg/kg/injection, schedule: Q04DX003 (ip), vehicle: suspension in saline) and 0 of 5 on day 11 (dose: 20.0 mg/kg/injection, schedule: Q04DX003 (ip), vehicle: suspension in saline).
As for `COc1cc2cc[n+](C)c(Cc3ccccc3)c2cc1OC`, the survivor count (dose: 150.0 mg/kg/injection, schedule: Q04DX003 (sc), vehicle: Klucel (hydroxypropylcellulose) (HPC)) is on record as 0 of 6 on day 11.
With `COc1cc2cc3cc4cc(OC)c(OC)cc4c(C)[n+]3cc2cc1OC` (tested in a mixture with another compound), the survivor count is listed as 3 of 6 on day 11 (dose: 1200.0 mg/kg/injection, schedule: Q04DX003 (sc), vehicle: suspension in saline) and 2 of 6 on day 11 (dose: 2400.0 mg/kg/injection, schedule: Q04DX003 (sc), vehicle: suspension in saline).
Consider `O=C1c2c(O)ccc(O)c2C(=O)c2c(NCCNCCO)ccc(NCCNCCO)c21`, for which the T/C (dose: 1.0 mg/kg/injection, schedule: Q01DX010 (sc), vehicle: acid diluted with saline) is 128 % of control. Further, the survivor count (dose: 4.0 mg/kg/injection, schedule: Q01DX010 (sc), vehicle: acid diluted with saline) was 0 of 3 on day 11; the survivor count (dose: 10.0 mg/kg/injection, schedule: Q04DX003 (sc), vehicle: water) is given as 2 of 6 on day 11; the survivor count (dose: 20.0 mg/kg/injection, schedule: Q04DX003 (sc), vehicle: other) is 0 of 6 on day 11; the survivor count (dose: 20.0 mg/kg/injection, schedule: Q04DX003 (sc), vehicle: water) is recorded as 0 of 6 on day 11; the survivor count (dose: 40.0 mg/kg/injection, schedule: Q04DX003 (sc), vehicle: water) is 0 of 6 on day 11.
Turning to `O=Cc1ccc(C(Cl)(Cl)Cl)cc1`, the T/C under setting [1] is 128 % of control [2 of 2 alive on day 11].
`CC(=O)O[C@H]1C(=O)[C@@]2(C)[C@H]([C@H](OC(=O)c3ccccc3)[C@]3(O)C[C@H](OC(=O)[C@H](O)[C@@H](NC(=O)c4ccccc4)c4ccccc4)C(C)=C1C3(C)C)[C@]1(OC(C)=O)CO[C@@H]1C[C@@H]2O`: the survivor count is 0 of 3 on day 11 (dose: 200.0 mg/kg/injection, schedule: Q01DX010 (sc), vehicle: Klucel (hydroxypropylcellulose) (HPC)); 0 of 3 on day 11 and 1 of 3 on day 11 (dose: 400.0 mg/kg/injection, schedule: Q01DX010 (sc), vehicle: Klucel (hydroxypropylcellulose) (HPC)).
Consider `CC[N](CC)[Ge]([CH2]C)[CH2]C.CC[N](CC)[Ge]([CH2]C)[CH2]C`, for which the survivor count (dose: 100.0 mg/kg/injection, schedule: Q01DX010 (sc), vehicle: saline) was 0 of 3 on day 11.
Take `CNc1nc2c(N)ncnc2n1C1OC(CO)C(O)C1O` (configuration not stated): the survivor count (dose: 100.0 mg/kg/injection, schedule: Q04DX003 (sc), vehicle: saline) is 2 of 6 on day 11.
With `COC1OC(CO)C(O)C(NC(=O)N(C)N=O)C1O` (configuration not stated), for the setting “dose: 2400.0 mg/kg/injection, schedule: Q04DX003 (sc), vehicle: saline”, the survivor count was 0 of 6 on day 11 and 1 of 6 on day 11.
On to `N#CN=[N+]([O-])c1ccc(C(=O)O)cc1`, for which the survivor count (dose: 90.0 mg/kg/injection, schedule: Q04DX003 (sc), vehicle: Klucel (hydroxypropylcellulose) (HPC)) is on record as 0 of 6 on day 11.
With `Cn1cnc([N+](=O)[O-])c1Sc1ncn[nH]1`, the survivor count (dose: 800.0 mg/kg/injection, schedule: Q04DX003 (sc), vehicle: suspension in saline) is listed as 2 of 6 on day 11.
With `O=CC(O)C(O)C(O)C(O)C(=O)O.[NH-]C1CCCCC1[NH-].[Pt+2]` (configuration not stated), the survivor count is, setting by setting: (dose: 37.5 mg/kg/injection, schedule: Q04DX003 (sc), vehicle: suspension in saline) 3 of 6 on day 11; (dose: 75.0 mg/kg/injection, schedule: Q04DX003 (sc), vehicle: suspension in saline) 0 of 6 on day 11.
Consider `O=C1NC2(CCCCC2)C(=O)N1CCN(CCCl)CCCl`, for which the survivor count (dose: 12.0 mg/kg/injection, schedule: Q01DX010 (sc), vehicle: saline with Tween-80) is 1 of 3 on day 11; the survivor count (dose: 24.0 mg/kg/injection, schedule: Q01DX010 (sc), vehicle: saline with Tween-80) is 0 of 3 on day 11; the survivor count (dose: 48.0 mg/kg/injection, schedule: Q01DX010 (sc), vehicle: saline with Tween-80) is reported as 0 of 3 on day 11; the survivor count (dose: 96.0 mg/kg/injection, schedule: Q01DX010 (sc), vehicle: saline with Tween-80) is listed as 0 of 2 on day 11; the survivor count (dose: 96.0 mg/kg/injection, schedule: Q01DX010 (sc), vehicle: saline) is listed as 0 of 2 on day 11.
Turning to `C[C@@H](CN1CC(=O)NC(=O)C1)N1CC(=O)NC(=O)C1`, the survivor count (dose: 800.0 mg/kg/injection, schedule: Q01DX010 (sc), vehicle: saline with Tween-80) was 0 of 3 on day 11.
Take `O=[Te]=O`: where the note is “dose: 100.0 mg/kg/injection, schedule: Q04DX003 (sc), vehicle: suspension in saline”, the survivor count is listed as 2 of 6 on day 11.
